# Measurements published in PubChem BioAssay AID493014 (National Center for Advancing Translational Sciences (NCATS), 2011).
# Some of the results follow. These are further read-outs of the screen, such as a control signal, another cell line or another target. No call is given for them. Compounds called inactive in the main read-out are mostly missing here. Potencies come from curve fits of mixed quality, noted in brackets.
# Experiment: qHTS Assay to Find Inhibitors of Chronic Active B-Cell Receptor Signaling
# Settings: ABC-DLBCL IkBa-CBG/CBR reporter, luminescence ratio (green luciferase fused to IkBa over red control in TMD8 lymphoma cells), 4 h
# In short: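 Concentration-response series (up to 46 uM) were applied to TMD8 dual-reporter cells for 4 h at 37C with doxycycline. Green/red ratio, after filter-overlap correction, defined %Activity; red signal alone was normalised to basal cells and zero luminescence.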
# [1] = measured here: CBR red luminescence, cell number
# [2] = measured here: IkBa-CBG green luminescence
Compound,AC50 [1],AC50 [2]
CS(=O)(=O)O/N=C1\CCCCC1c1ccc([N+](=O)[O-])cc1[N+](=O)[O-] (centres undefined),"15.8 µM [rising, single point]",–
CCCCNC(=O)CSc1nnc(-c2c[nH]c3ccccc23)n1CC1CCCO1 (centres undefined),"9.2 µM [rising, partial curve, poor fit]",–
CCOc1cc(/C=C(/NC(C)=O)C(=O)O)cc(Cl)c1OCc1cccc(Br)c1,"35.5 µM [falling, single point]","15.8 µM [rising, partial curve, poor fit]"
CCOC(=O)CN1C=C(c2ccc3ccccc3n2)C(C[N+](=O)[O-])c2ccccc21 (centres undefined),"1.46 µM [rising, partial curve]",–
CCOC(=O)COc1c(OC)cc(Cl)cc1C1Nc2ccccc2C(=O)N1c1cccc(C)c1 (centres undefined),"11.2 µM [falling, single point]",–
C=CCn1c(SCC(=O)Nc2ccc(Cl)cn2)nnc1C1CC1,"25.1 µM [falling, partial curve, poor fit]",–
CCOC(=O)c1c(C)n(C)c2ccc(OC(=O)c3ccc([N+](=O)[O-])cc3)cc12,"0.461 µM [rising, full curve]",–
Brc1cccc(CNCc2cccs2)c1,"11.6 µM [rising, partial curve, poor fit]",–
COc1ccc(OCCC(=O)OCC(=O)Nc2ccc(Br)cc2)cc1,"8.2 µM [falling, partial curve, poor fit]",–
CC(=O)NC(c1cc(F)c2cccnc2c1O)C1CC1 (centres undefined),"29.1 µM [rising, single point]","29.1 µM [falling, single point]"
COc1ccc(-c2nc(C)c(C(C)=O)n2O)cc1[N+](=O)[O-],"17.8 µM [falling, partial curve]",–
COc1ccc2c(c1)OC[C@H]1[C@H]2N2C(=O)c3cc(Br)ccc3NC(=O)[C@@]2(C)[C@H]1c1ccccc1,"3.66 µM [falling, full curve]",–
COc1ccc(C)cc1NC(=O)CSc1nnc(-c2ccccn2)n1Cc1ccco1,"35.5 µM [falling, single point]",–
Nc1ccccc1Nc1nc2ccccc2[nH]1,"11.2 µM [falling, partial curve]",–
O=C(CC1COc2ccccc2O1)Nc1ccccn1 (centres undefined),"16.4 µM [falling, single point]",–
Cc1cc(Nc2ccccc2)nc(-c2ccccc2O)n1,"23.1 µM [falling, partial curve, poor fit]",–
O=C(N=Nc1c(O)[nH]c2ccc(F)cc12)C1COc2ccccc2O1 (centres undefined),"17.8 µM [falling, single point]",–
Cc1ccc(OCC(=O)NNC(=O)Cc2ccc(S(=O)(=O)N3CCOCC3)s2)cc1,"8.2 µM [rising, partial curve]",–
CCc1ccc(NCCC(=O)c2ccc(Br)cc2)cc1,"10 µM [rising, partial curve, poor fit]",–
CCCC(=O)N(CCc1ccccc1)Cc1nc2ccccc2c(=O)[nH]1,"17.8 µM [falling, partial curve, poor fit]",–
CCOC(=O)C1=C(O)/C(=C/c2cc(OC)c(OC)c(OC)c2)SC1=Nc1ccc(OC)cc1,"0.1 µM [rising, full curve, poor fit]",–
Cc1ccc(N(CC2CO2)S(=O)(=O)c2ccc(C)cc2)cc1 (centres undefined),"22.4 µM [falling, single point]",–

# Some of the entries so far, bar-delimited.
Compound | AC50 [1] | AC50 [2]
CCCCNC(=O)CSc1nnc(-c2c[nH]c3ccccc23)n1CC1CCCO1 (centres undefined) | 9.2 µM [rising, partial curve, poor fit] | –
CCCC(=O)N(CCc1ccccc1)Cc1nc2ccccc2c(=O)[nH]1 | 17.8 µM [falling, partial curve, poor fit] | –

# The listing continues.

Compound,AC50 [1],AC50 [2]
Cc1ccc(CN=c2c([N+](=O)[O-])nn(-c3ccc4c(c3)OCCO4)n2O)cc1,"25.9 µM [rising, single point]",–
COc1cc(CNCc2cccnc2)ccc1OCC(=O)NC(C)(C)C,"3.55 µM [rising, partial curve, poor fit]",–
Cc1ccccc1CSc1nnc(NC(=O)Cc2cccs2)s1,"16.4 µM [rising, partial curve, poor fit]",–
COc1cccc(C(=O)N/N=C/c2ccc(OC3CSC3)cc2)c1,"0.092 µM [falling, full curve]",–
Cc1ccc(S(=O)(=O)N2CCCCC2C(=O)O)cc1 (centres undefined),"3.98 µM [rising, full curve, poor fit]",–
O=C(O)c1ccc(CSc2ncnc3c2cnn3Cc2ccccc2)cc1,"8.91 µM [falling, partial curve]",–
NS(=O)(=O)OCCCc1ccc(C(F)(F)F)cc1,"5.62 µM [falling, partial curve, poor fit]",–
O=C(Cn1c(=O)c2c(ncn2C2CCCC2)n(Cc2ccccc2)c1=O)N1CCc2ccccc21,"18.4 µM [falling, partial curve]",–
CCCc1cc(C(=O)Nc2cccc(C(C)=O)c2)no1,"12.6 µM [rising, single point]",–
Cc1cccc(Nc2nc(-c3cccs3)cs2)n1,"16.4 µM [falling, partial curve]",–
Nc1nc(N)c2[nH]c(-c3ccccc3)nc2n1,"2 µM [falling, full curve]",–
Cc1cc2oc(=O)cc(CN3CCN(C/C=C/c4ccccc4)CC3)c2cc1O,"12.6 µM [falling, partial curve, poor fit]",–
O=C(CSc1ncn[nH]1)N/N=C/c1ccc(Br)cc1,"14.1 µM [falling, partial curve]",–
CC(C)c1ccc(NC(=S)NC2CC3C=CC2C3)cc1 (centres undefined),"0.794 µM [rising, full curve, poor fit]",–
CCOC(=O)N1CCN(Cc2nc(Cc3cccc(C(F)(F)F)c3)no2)CC1,"35.5 µM [rising, partial curve, poor fit]",–
Cc1cc(C)n2c(C)nnc2c1,"12.6 µM [falling, partial curve, poor fit]",–
N/C(=N\OC(=O)COc1ccc2ccccc2c1)c1ccncc1,"0.562 µM [rising, full curve, poor fit]",–
Cc1nnsc1C(=O)NNC(=O)c1ccc(C(F)(F)F)cc1,"35.5 µM [falling, single point]",–
CS(=O)(=O)C1=C(O)C(=O)N(c2ccccc2)C1c1ccccc1 (centres undefined),"1.16 µM [rising, full curve, poor fit]","5.8 µM [falling, partial curve, poor fit]"
Nc1nc(SCc2ccccc2)c2[nH]cnc2n1,–,"14.1 µM [falling, partial curve, poor fit]"
COc1ccc(C(=O)NCCn2cc(SCC(=O)Nc3ccc(C)cc3)c3ccccc32)cc1,"20 µM [falling, single point]","12.6 µM [rising, partial curve, poor fit]"
O=C(Nc1nnc(C2CCCO2)s1)c1cccs1 (centres undefined),"29.1 µM [falling, single point]",–

Compound,AC50 [1],AC50 [2]
CC1CCC(NC(=O)CCS(=O)(=O)c2ccc3c(c2)CC(C)N3C(=O)C2CC2)CC1 (centres undefined),"2.82 µM [falling, single point]",–
CN(C(=O)Nc1cnccc1C(F)(F)F)C1CCCCC1,"20 µM [falling, partial curve, poor fit]",–
CCOC(=O)CN(C(=O)CNC(=O)c1cccs1)C(C(=O)NC1CCCC1)c1ccncc1 (centres undefined),"12.6 µM [rising, single point]",–
O=C(O)c1cccnc1SCCc1ccccc1,"3.66 µM [rising, partial curve, poor fit]",–
COc1ccc(-c2nnc(SCC(=O)Nc3ccccc3OC)o2)cc1,"8.2 µM [falling, partial curve]",–
c1ccc(-c2cn3c(n2)-c2ccccc2C3)cc1,"29.1 µM [falling, single point]",–
COCCOC(=O)c1c(NC(=O)CSc2cccc[n+]2[O-])sc(C(N)=O)c1C,–,"35.5 µM [falling, single point]"
CC(C)(Oc1ccc(CCNC(=O)c2ccc(Cl)cc2)cc1)C(=O)O,"20.6 µM [rising, single point]",–
OCCN1CCN(CCCN2c3ccccc3Sc3ccc(C(F)(F)F)cc32)CC1,"23.1 µM [falling, partial curve]","7.94 µM [rising, partial curve]"
Cc1cc(NCc2ccccn2)n2ncc(-c3ccccc3)c2n1,"35.5 µM [falling, single point]",–
Cc1c(Cc2ccccc2)sc(N)c1C(N)=O,"32.6 µM [rising, single point]",–
CCC(=O)c1ccc(O)c(CC=C(C)C)c1,"15.8 µM [rising, single point]",–
c1ccc(-c2nc(C3CCCCC3)c3ccccc3n2)cc1,"20.6 µM [falling, single point]",–
O=C(O)C1CCCN1C(=O)c1cncc(Br)c1 (centres undefined),"2.82 µM [rising, single point]",–
Cc1ccc(NC(=O)C(Cc2ccccc2)n2cccc2)cc1 (centres undefined),"12.6 µM [rising, partial curve, poor fit]",–
O=C(NC1CCCCC1)N1CCc2[nH]c3ccccc3c2C1,"11.2 µM [falling, partial curve]",–
Cc1ccc(-c2noc(CN(C(=O)c3ccc4c(c3)OCO4)C(C)C)n2)cc1,"12.6 µM [falling, single point]",–
COc1ccc(CCNC(=O)C/C(C)=N/NC(=O)c2cnccn2)cc1,"20 µM [falling, partial curve, poor fit]",–
CC(=O)COc1ccc2oc(=O)cc(-c3cc4ccccc4o3)c2c1,"35.5 µM [falling, single point]",–
CCNC(=O)COC(=O)c1csc2c1CCCC2,"9.2 µM [rising, partial curve, poor fit]",–
